Holding throughout (assay): two-hybrid
Assay [1] has as its target T1, DnaB second C-terminal domain (B. subtilis), two-hybrid fusion (B. subtilis) (UniProt P07908).
T1 sequence: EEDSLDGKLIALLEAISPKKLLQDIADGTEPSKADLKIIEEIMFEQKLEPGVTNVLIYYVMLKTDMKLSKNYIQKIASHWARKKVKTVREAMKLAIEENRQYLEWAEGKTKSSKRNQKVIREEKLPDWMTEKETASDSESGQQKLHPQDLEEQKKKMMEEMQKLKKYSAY

Amino acid sequences for entries named in this document (tags omitted). A change or cut given only in a name is not applied to a line headed by its entry. Residues count along the entry.
UniProt P05648, 1-82: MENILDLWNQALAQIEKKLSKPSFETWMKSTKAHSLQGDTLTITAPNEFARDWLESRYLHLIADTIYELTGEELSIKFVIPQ

Assay [2] addresses T2, DnaB winged helix domain (B. subtilis), two-hybrid fusion (B. subtilis) (UniProt P07908).
T2 sequence: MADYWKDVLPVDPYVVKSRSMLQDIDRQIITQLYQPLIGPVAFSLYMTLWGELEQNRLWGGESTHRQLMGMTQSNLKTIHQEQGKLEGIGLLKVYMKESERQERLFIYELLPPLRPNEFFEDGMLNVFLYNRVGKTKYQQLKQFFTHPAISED

Assay [3] concerns the target DnaA^DI T26A (B. subtilis), two-hybrid fusion (B. subtilis) (UniProt P05648).
For assay [4], the target named is DnaA domain I (B. subtilis), two-hybrid fusion (B. subtilis) (UniProt P05648).
Assay [5] concerns the target T3, full-length DnaB (B. subtilis), two-hybrid fusion (B. subtilis) (UniProt P07908).
T3 sequence: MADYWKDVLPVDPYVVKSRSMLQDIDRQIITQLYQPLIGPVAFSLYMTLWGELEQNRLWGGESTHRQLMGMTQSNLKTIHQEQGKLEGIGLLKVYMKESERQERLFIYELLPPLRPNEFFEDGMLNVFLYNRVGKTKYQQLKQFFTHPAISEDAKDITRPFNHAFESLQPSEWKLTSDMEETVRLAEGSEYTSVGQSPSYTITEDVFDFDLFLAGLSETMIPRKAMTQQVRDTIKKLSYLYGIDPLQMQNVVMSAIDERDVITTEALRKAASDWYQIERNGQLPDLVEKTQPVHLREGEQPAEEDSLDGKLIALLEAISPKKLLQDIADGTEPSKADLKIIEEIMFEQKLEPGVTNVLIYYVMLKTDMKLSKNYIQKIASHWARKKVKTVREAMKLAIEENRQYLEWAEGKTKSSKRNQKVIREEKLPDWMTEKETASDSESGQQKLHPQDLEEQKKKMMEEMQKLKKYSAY

The target in assay [6] is T1, DnaB second C-terminal domain (B. subtilis), two-hybrid fusion (B. subtilis). This is another data set of the same source.
The target in assay [7] is T2, DnaB winged helix domain (B. subtilis), two-hybrid fusion (B. subtilis). This is another data set of the same source.
Assay [8] concerns the target T4, DnaB S371P gain-of-function variant (B. subtilis), two-hybrid fusion (B. subtilis) (UniProt P07908).
T4 sequence: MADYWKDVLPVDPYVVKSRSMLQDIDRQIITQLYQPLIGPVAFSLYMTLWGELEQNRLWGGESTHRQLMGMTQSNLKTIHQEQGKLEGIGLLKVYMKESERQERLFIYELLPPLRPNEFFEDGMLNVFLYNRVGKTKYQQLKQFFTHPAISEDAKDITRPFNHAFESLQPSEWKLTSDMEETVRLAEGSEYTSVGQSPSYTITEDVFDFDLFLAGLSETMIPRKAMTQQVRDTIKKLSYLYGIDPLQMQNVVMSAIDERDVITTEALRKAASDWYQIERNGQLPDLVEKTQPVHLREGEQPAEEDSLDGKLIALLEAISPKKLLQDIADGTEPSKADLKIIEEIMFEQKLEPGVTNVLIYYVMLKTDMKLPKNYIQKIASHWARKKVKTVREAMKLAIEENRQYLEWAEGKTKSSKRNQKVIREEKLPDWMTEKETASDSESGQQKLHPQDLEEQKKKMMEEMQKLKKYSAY

Where two headings read alike, the source gives them in different places. No constants are given. Whether binding was seen depends on the method and setting. Some results given as binding are weak or reduced against the parent protein; the word gives no strength. Tags and fused reporters may be left off the sequences shown.

B1: DnaD^WHD ΔNT variant (B. subtilis), two-hybrid fusion (domain or fragment, UniProt P39787 19-128)
chain: NLLLTHYKQLGLNETELILLLKIKMHLEKGSYFPTPNQLQEGMSISVEECTNRLRMFIQKGFLFIEECEDQNGIKFEKYSLQPLWGKLYEYIQLAQNQTQERKAEGEQKS
With B1, the binding result in assay [1] and in assay [2] was “binds” in each case.

B2: full-length SirA (B. subtilis), two-hybrid fusion (protein, UniProt P45707 1-148)
chain: MERHYYTYLIKEEFANHYFGRESVMFELFQDYHWTSLEKQQYEMTEKQIQYITQPIPILHMHQRLKMNLNKTDYRQLDYIYRIALPKAKGHATFMMKEHMIEIVASGDYEAETIFFEVLRKVSPCFLAMDFNSKRYGWLNPVKERNFV
For the molecule B2, the binding entry in assay [3] and in assay [4] was “binds” in each case.

B3: DnaD winged helix domain (B. subtilis), two-hybrid fusion (domain or fragment, UniProt P39787 1-128)
chain: MKKQQFIDMQEQGTSTIPNLLLTHYKQLGLNETELILLLKIKMHLEKGSYFPTPNQLQEGMSISVEECTNRLRMFIQKGFLFIEECEDQNGIKFEKYSLQPLWGKLYEYIQLAQNQTQERKAEGEQKS
As to B3, the binding entry in assay [1], in assay [2], in assay [5], in assay [6] and in assay [7] was “binds” in each case.

B4: DnaD^WHD I83A (B. subtilis), two-hybrid fusion (domain or fragment, UniProt P39787 1-128)
chain: MKKQQFIDMQEQGTSTIPNLLLTHYKQLGLNETELILLLKIKMHLEKGSYFPTPNQLQEGMSISVEECTNRLRMFIQKGFLFAEECEDQNGIKFEKYSLQPLWGKLYEYIQLAQNQTQERKAEGEQKS
As to B4, the binding result in assay [5] is given as “binds”.

B5: DnaD^WHD F51A (B. subtilis), two-hybrid fusion (domain or fragment, UniProt P39787 1-128)
chain: MKKQQFIDMQEQGTSTIPNLLLTHYKQLGLNETELILLLKIKMHLEKGSYAPTPNQLQEGMSISVEECTNRLRMFIQKGFLFIEECEDQNGIKFEKYSLQPLWGKLYEYIQLAQNQTQERKAEGEQKS
As for B5, in assay [5], the binding entry was “binds”.

B6: full-length DnaD (B. subtilis), two-hybrid fusion (protein, UniProt P39787 1-232)
chain: MKKQQFIDMQEQGTSTIPNLLLTHYKQLGLNETELILLLKIKMHLEKGSYFPTPNQLQEGMSISVEECTNRLRMFIQKGFLFIEECEDQNGIKFEKYSLQPLWGKLYEYIQLAQNQTQERKAEGEQKSLYTIFEEEFARPLSPLECETLAIWQDQDQHDAQLIKHALKEAVLSGKLSFRYIDRILFEWKKNGLKTVEQAKIHSQKFRRVQAKQNEPQKEYKRQVPFYNWLEQ
In the case of B6, the binding entry in assay [8] is “binds”.

B7: full-length DnaB (B. subtilis), two-hybrid fusion (protein, UniProt P07908 1-472)
chain: MADYWKDVLPVDPYVVKSRSMLQDIDRQIITQLYQPLIGPVAFSLYMTLWGELEQNRLWGGESTHRQLMGMTQSNLKTIHQEQGKLEGIGLLKVYMKESERQERLFIYELLPPLRPNEFFEDGMLNVFLYNRVGKTKYQQLKQFFTHPAISEDAKDITRPFNHAFESLQPSEWKLTSDMEETVRLAEGSEYTSVGQSPSYTITEDVFDFDLFLAGLSETMIPRKAMTQQVRDTIKKLSYLYGIDPLQMQNVVMSAIDERDVITTEALRKAASDWYQIERNGQLPDLVEKTQPVHLREGEQPAEEDSLDGKLIALLEAISPKKLLQDIADGTEPSKADLKIIEEIMFEQKLEPGVTNVLIYYVMLKTDMKLSKNYIQKIASHWARKKVKTVREAMKLAIEENRQYLEWAEGKTKSSKRNQKVIREEKLPDWMTEKETASDSESGQQKLHPQDLEEQKKKMMEEMQKLKKYSAY
Consider B7, for which the binding result in assay [5] is given as “binds”.

The values above are taken from article doi:10.1101/313882.
